# Assay results reported in the supplement of paper PMC10849652.
# Sequences of proteins named here, by UniProt entry; tags and fusion partners are left off. A change or cut given only in a name is not applied to a line headed by its entry.
# UniProt Q9Y5U9: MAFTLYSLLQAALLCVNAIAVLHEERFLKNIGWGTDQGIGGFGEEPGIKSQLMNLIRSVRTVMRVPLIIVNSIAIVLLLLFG
# UniProt Q8IY31, whole entry, looked up: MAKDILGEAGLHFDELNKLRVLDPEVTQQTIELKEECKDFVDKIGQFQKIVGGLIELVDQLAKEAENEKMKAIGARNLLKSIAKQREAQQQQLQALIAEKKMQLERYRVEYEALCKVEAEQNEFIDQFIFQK
# UniProt Q9BT40: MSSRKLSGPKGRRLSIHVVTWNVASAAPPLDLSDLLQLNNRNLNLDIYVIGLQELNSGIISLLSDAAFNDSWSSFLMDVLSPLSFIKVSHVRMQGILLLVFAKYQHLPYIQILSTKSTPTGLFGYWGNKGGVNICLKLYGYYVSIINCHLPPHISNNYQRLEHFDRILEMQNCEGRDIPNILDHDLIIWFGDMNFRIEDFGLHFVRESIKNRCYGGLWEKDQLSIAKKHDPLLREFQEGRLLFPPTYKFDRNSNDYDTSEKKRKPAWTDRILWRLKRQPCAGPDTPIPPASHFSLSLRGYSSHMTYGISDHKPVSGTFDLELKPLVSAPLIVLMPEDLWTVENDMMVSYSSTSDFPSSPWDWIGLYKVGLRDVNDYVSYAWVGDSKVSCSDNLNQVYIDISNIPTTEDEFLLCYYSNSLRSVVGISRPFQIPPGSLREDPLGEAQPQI
# UniProt Q8N201, whole entry, looked up: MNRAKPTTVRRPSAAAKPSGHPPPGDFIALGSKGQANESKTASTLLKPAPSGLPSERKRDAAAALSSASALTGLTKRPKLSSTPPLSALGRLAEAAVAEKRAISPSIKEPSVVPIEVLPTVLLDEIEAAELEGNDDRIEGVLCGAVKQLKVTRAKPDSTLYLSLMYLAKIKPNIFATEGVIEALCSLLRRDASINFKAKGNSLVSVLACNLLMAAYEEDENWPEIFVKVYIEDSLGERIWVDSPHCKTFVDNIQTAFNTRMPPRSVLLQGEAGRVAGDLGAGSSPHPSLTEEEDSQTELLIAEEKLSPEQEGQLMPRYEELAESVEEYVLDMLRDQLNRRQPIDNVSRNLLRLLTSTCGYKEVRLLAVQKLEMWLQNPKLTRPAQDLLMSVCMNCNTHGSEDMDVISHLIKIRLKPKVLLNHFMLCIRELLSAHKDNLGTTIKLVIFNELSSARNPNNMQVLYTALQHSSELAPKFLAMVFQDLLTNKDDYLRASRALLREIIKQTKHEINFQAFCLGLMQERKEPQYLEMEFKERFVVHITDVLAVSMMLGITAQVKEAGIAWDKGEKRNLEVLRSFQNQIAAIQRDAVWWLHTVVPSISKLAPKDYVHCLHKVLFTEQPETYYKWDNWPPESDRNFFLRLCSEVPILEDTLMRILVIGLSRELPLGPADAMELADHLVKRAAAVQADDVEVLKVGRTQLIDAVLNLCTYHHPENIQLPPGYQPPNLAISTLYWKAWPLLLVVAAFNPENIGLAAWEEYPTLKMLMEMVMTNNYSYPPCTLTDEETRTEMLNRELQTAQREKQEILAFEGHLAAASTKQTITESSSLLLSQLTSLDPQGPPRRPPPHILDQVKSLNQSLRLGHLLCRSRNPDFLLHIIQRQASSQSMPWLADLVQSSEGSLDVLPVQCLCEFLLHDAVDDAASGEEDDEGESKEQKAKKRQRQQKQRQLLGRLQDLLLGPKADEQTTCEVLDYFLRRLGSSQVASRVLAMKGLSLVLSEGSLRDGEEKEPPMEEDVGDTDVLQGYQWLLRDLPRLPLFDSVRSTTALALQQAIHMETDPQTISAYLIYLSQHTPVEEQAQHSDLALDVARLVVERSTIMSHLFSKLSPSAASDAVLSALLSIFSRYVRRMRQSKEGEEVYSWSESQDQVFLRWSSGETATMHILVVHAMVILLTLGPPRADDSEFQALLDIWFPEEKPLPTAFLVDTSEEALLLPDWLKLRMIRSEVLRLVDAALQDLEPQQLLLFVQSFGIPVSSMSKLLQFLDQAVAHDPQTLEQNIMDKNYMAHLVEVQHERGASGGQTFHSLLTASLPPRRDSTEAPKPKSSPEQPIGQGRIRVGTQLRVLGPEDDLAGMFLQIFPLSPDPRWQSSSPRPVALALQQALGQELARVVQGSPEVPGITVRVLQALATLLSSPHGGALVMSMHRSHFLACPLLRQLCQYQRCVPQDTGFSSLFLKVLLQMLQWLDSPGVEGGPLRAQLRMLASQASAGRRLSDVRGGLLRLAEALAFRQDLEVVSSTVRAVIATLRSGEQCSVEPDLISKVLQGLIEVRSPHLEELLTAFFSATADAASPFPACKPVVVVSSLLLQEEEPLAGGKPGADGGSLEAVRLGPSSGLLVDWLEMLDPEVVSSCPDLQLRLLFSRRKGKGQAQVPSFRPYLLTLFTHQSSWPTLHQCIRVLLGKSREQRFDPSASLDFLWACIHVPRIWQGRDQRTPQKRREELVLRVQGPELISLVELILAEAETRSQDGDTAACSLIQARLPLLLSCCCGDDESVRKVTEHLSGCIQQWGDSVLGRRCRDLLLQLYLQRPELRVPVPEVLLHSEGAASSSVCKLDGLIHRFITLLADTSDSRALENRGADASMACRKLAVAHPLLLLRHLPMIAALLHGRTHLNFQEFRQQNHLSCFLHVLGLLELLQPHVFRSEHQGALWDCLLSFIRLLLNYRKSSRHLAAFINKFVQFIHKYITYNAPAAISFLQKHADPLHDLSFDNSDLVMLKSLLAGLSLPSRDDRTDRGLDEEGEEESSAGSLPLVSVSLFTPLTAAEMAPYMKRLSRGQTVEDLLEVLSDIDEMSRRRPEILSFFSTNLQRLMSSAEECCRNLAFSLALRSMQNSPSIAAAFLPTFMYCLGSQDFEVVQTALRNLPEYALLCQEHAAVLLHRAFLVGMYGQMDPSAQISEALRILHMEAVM
# UniProt Q9NRY2: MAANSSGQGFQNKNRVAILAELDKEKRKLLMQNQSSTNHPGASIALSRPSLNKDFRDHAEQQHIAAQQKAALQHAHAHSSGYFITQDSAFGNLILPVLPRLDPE
# UniProt Q75QN2, whole entry, looked up: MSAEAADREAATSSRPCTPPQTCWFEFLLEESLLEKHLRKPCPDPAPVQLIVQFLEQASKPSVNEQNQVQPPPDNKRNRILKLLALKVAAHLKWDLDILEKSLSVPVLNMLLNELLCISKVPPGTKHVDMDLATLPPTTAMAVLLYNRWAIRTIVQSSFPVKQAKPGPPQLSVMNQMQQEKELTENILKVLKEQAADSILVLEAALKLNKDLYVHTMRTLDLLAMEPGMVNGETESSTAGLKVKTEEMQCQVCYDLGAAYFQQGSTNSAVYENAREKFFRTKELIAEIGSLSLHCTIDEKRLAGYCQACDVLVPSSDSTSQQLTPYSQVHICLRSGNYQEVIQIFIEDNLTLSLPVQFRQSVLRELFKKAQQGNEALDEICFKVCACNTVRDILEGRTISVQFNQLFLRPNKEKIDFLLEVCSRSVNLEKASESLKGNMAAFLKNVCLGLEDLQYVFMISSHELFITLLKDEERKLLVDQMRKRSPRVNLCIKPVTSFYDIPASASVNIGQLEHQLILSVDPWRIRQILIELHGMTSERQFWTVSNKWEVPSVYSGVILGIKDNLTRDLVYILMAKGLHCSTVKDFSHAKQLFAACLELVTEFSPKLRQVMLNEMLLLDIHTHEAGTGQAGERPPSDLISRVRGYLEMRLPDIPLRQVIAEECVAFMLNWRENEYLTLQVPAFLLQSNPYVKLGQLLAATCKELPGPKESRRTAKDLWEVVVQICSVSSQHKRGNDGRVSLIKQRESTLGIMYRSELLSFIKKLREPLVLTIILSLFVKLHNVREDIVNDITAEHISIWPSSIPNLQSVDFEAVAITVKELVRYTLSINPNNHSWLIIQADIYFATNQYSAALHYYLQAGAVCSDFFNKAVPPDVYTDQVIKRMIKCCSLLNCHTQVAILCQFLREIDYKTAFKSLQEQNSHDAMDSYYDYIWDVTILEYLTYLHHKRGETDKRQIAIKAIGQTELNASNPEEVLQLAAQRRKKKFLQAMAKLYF
# UniProt O14732: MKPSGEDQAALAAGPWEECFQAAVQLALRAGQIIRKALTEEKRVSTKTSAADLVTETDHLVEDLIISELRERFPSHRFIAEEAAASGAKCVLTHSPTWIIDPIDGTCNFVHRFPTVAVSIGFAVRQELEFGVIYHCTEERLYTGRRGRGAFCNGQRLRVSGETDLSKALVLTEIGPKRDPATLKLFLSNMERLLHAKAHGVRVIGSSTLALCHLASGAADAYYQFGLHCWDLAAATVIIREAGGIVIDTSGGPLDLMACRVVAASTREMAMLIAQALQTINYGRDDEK
# UniProt Q9H2S9: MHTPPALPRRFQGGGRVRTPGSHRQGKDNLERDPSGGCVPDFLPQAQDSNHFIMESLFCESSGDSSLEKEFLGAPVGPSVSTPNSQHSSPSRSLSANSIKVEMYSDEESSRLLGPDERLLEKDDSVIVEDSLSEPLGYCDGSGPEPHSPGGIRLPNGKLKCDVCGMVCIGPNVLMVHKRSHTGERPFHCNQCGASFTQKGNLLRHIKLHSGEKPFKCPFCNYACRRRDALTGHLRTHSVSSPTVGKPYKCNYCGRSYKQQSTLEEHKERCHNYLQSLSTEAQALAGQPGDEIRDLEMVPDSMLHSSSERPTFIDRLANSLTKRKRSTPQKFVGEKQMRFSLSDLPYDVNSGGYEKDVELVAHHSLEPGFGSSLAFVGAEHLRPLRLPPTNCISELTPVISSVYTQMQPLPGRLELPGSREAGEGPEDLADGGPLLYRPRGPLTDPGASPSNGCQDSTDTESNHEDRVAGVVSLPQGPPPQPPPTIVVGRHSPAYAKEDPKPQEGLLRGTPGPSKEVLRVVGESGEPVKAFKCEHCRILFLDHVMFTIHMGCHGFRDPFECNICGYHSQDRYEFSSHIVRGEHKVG
# UniProt Q9BUE6: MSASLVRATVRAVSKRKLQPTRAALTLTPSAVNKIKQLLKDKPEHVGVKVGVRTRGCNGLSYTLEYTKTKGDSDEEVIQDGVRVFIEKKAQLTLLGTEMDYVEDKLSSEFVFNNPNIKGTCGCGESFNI
# UniProt P08514, whole entry, looked up: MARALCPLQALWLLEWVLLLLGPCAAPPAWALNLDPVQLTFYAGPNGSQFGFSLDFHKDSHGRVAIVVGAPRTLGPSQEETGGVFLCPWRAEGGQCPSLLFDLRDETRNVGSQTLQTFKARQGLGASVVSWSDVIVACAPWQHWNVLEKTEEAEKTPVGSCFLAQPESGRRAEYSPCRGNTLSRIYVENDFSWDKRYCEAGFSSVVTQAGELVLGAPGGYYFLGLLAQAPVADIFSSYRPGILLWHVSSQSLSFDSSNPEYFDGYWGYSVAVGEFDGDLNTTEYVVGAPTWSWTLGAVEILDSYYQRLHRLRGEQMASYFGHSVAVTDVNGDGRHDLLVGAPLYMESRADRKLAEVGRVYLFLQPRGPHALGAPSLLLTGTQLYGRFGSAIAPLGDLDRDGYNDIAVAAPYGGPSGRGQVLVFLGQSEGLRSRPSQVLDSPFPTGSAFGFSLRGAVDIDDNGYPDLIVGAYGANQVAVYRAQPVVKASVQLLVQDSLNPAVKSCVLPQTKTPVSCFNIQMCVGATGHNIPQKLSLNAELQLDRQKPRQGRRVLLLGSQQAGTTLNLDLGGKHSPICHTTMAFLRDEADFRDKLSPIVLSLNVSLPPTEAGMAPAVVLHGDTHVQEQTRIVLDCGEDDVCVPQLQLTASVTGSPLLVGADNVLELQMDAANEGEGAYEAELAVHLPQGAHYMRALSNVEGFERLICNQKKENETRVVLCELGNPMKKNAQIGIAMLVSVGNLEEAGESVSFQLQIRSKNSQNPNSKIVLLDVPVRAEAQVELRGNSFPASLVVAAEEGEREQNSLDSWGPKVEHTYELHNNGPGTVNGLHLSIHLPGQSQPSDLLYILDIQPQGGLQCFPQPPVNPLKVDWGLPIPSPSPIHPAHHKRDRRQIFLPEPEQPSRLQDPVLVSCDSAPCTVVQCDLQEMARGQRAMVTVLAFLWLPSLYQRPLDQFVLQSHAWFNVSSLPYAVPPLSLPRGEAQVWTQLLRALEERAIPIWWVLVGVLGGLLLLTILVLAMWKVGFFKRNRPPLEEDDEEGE
# UniProt Q13478: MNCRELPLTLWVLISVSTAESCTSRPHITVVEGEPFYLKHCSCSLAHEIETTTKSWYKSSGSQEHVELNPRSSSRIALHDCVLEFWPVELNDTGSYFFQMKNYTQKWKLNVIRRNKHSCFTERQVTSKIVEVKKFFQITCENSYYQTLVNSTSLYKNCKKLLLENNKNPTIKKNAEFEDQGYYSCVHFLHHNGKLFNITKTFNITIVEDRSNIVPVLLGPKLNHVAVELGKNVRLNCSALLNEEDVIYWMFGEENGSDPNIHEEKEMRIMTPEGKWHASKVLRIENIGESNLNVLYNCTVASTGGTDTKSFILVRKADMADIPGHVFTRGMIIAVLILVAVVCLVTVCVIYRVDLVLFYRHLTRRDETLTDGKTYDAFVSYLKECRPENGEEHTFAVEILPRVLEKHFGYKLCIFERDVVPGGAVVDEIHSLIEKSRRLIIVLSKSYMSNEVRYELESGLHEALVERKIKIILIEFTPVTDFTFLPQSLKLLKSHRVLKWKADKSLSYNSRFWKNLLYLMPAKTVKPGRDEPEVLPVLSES
# Some of the results follow.
# Assays:
# Test in all cases: log2 fold change, soluble protein after heating vs DMSO (PISA); higher = thermal stabilisation; K562 cells, 10 uM, 30 min; active = over 0.2 and 3.5 SD of the protein, either way, in both replicates (recomputed)
# [1] = compound: CC1=C(C=C(C=C1)NC(=O)C2=CC(=CC=C2)C(C)(C)C#N)NC3=CC4=C(C=C3)N=CN(C4=O)C
# Outline: (§1)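 K562 cells (2×10^6 cells/mL) were treated with 10 μM compound for 30 min, and aliquots were heated for 3 min over 48°C-58°C. Pooled aliquots were extracted in PBS with 0.5% NP-40 at 4°C, and the supernatant after 21,000xg for 90 min was measured by TMTpro 16plex LC-MS/MS with channel sums equalised. Reported thermal stability, relative to control samples and from duplicates, is a log2 fold change.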
# [2] = compound: CC1=C(C=C(C=C1)NC(=O)C2=CC(=CC=C2)N(C)C)NC(=O)C3=CC=C(C=C3)O
# Outline: as §1
# [3] = compound: CC1=CC=C(C=C1)SC2=C3C=C(SC3=CN=C2)C(=O)N
# Outline: as §1
# [4] = compound: CC1=NC(=CC=C1)C2=C(N=C(N2)C(C)(C)C)C3=CC4=NC=CN=C4C=C3
# Outline: as §1
# Nexturastat A = compound: CCCCN(Cc1ccc(C(=O)NO)cc1)C(=O)Nc1ccccc1 [Nexturastat A]
# Outline: as §1
# vemurafenib = compound: CCCS(=O)(=O)Nc1ccc(F)c(C(=O)c2c[nH]c3ncc(-c4ccc(Cl)cc4)cc23)c1F [vemurafenib]
# Outline: as §1
# [5] = compound: CCCS(=O)(=O)Nc1ccc(F)c(C(=O)c2c[nH]c3ncc(Cl)cc23)c1F
# Outline: as §1
# [6] = compound: CCCc1cc(C)[nH]c(=O)c1CNC(=O)c1cc(-c2ccnc(N3CCN(C)CC3)c2)cc2c1cnn2C(C)C
# Outline: as §1
# givinostat = compound: CCN(CC)Cc1ccc2cc(COC(=O)Nc3ccc(C(=O)NO)cc3)ccc2c1 [givinostat]
# Outline: as §1
# barasertib = compound: CCN(CCCOc1ccc2c(Nc3cc(CC(=O)Nc4cccc(F)c4)[nH]n3)ncnc2c1)CCOP(=O)(O)O [barasertib]
# Outline: as §1
# [7] = compound: CC[C@@H]1C(=O)N(C)c2cnc(Nc3ccc(C(=O)NC4CCN(C)CC4)cc3OC)nc2N1C1CCCC1
# Outline: as §1
# volasertib = compound: CC[C@@H]1C(=O)N(C)c2cnc(Nc3ccc(C(=O)N[C@H]4CC[C@H](N5CCN(CC6CC6)CC5)CC4)cc3OC)nc2N1C(C)C [volasertib]
# Outline: as §1
# epoxomicin = compound: CC[C@H](C)[C@@H](C(=O)N[C@@H]([C@@H](C)O)C(=O)N[C@@H](CC(C)C)C(=O)[C@]1(CO1)C)NC(=O)[C@H]([C@@H](C)CC)N(C)C(=O)C [epoxomicin]
# Outline: as §1
# [8] = compound: CCn1c(C(=O)N(C2CC2)C2CC2)cc2c3c(ncn3C)c(Nc3cc(C)n(C)n3)nc21
# Outline: as §1
# [9] = compound: CCn1cc(-c2ccnc3[nH]c(-c4cccc(CN(C)C)c4)cc23)c(-c2ccc(NC(=O)N(C)C)cc2)n1
# Outline: as §1
# [10] = compound: CN(C)CC(=O)Nc1ccc2[nH]c(=O)c3ccccc3c2c1
# Outline: as §1
# rosiglitazone = compound: CN(CCOC1=CC=C(C=C1)C[C@H]2C(=O)NC(=O)S2)C3=CC=CC=N3 (racemic) [rosiglitazone]
# Outline: as §1
# [11] = compound: CN1C2=C(C3=C1C(=O)N(N=C3)CC4=CC(=CC=C4)N)SC(=C2)S(=O)C
# Outline: as §1
# [12] = compound: CN1CCC(CNc2ccc3ncc(-c4cccc(OC(F)(F)F)c4)n3n2)CC1
# Outline: as §1
# [13] = compound: CC[C@H](C)N1C=C(C2=C(C=C(C=C21)C3=CN=C(C=C3)N4CCNCC4)C(=O)NCC5=C(C=C(NC5=O)C)C)C
# Outline: as §1
Target,log2 fold change [1],log2 fold change [2],log2 fold change [3],log2 fold change [4],log2 fold change (Nexturastat A),log2 fold change (vemurafenib),log2 fold change [5],log2 fold change [6],log2 fold change (givinostat),log2 fold change (barasertib),log2 fold change [7],log2 fold change (volasertib),log2 fold change (epoxomicin),log2 fold change [8],log2 fold change [9],log2 fold change [10],log2 fold change (rosiglitazone),log2 fold change [11],log2 fold change [12],log2 fold change [13]
IER3IP1 (UniProt Q9Y5U9),inactive: -0.06,inactive: 0.003,inactive: 0.008,inactive: -0.322,inactive: 0.058,inactive: -0.054,inactive: 0.134,inactive: 0.158,inactive: 0.036,inactive: 0.007,inactive: -0.013,inactive: -0.296,inactive: -0.078,inactive: -0.224,inactive: 0.019,inactive: 0.04,inactive: 0.049,inactive: 0.079,inactive: 0.107,
INTS5 (UniProt Q6P9B9),inactive: 0.091,inactive: -0.061,inactive: 0.026,inactive: 0.042,inactive: 0.01,inactive: 0.087,inactive: 0.074,inactive: 0.122,inactive: 0.038,inactive: 0.015,,inactive: -0.152,inactive: 0.052,,,inactive: -0.003,,inactive: -0.133,,inactive: 0.049
IFT20 isoform 2 (UniProt Q8IY31),inactive: -0.087,inactive: 0.064,,,,,,inactive: -0.016,inactive: 0.058,,inactive: -0.161,,,inactive: 0.171,,,,,,inactive: 0.115
INPP5K (UniProt Q9BT40),inactive: -0.005,inactive: 0.028,,inactive: -0.063,inactive: -0.156,inactive: -0.014,,inactive: 0.066,inactive: 0.059,,inactive: -0.214,,inactive: -0.206,inactive: -0.059,inactive: -0.083,inactive: 0.059,,inactive: 0.217,inactive: -0.429,inactive: -0.012
INTS1 (UniProt Q8N201),inactive: -0.273,inactive: -0.057,,,inactive: 0.289,,,inactive: -0.16,inactive: -0.109,,inactive: 0.079,,inactive: -0.178,inactive: -0.037,inactive: 0.013,,,inactive: 0.018,inactive: -0.258,inactive: -0.245
IP6K1 (UniProt Q92551),inactive: 0.443,inactive: 0.022,,,inactive: 0.232,,inactive: -0.015,inactive: 0.068,inactive: -0.008,inactive: 0.259,inactive: 0.127,inactive: -0.176,inactive: 0,,inactive: 0.028,,,inactive: 0.147,inactive: -0.052,
INIP (UniProt Q9NRY2),inactive: 0.25,,inactive: 0.086,,inactive: 0.205,inactive: 0.024,inactive: 0.12,inactive: 0.016,,,inactive: 0.15,inactive: 0.053,inactive: 0.504,,,inactive: 0.057,,,,inactive: -0.007
INTS8 (UniProt Q75QN2),inactive: 0.11,inactive: 0.004,inactive: 0.047,inactive: -0.041,,inactive: 0.102,inactive: 0.037,,inactive: 0.058,inactive: -0.034,inactive: 0.258,inactive: -0.055,,inactive: 0.016,inactive: -0.062,inactive: -0.024,inactive: -0.228,inactive: -0.041,inactive: 0.017,inactive: -0.025
IMPA2 (UniProt O14732),inactive: 0.038,inactive: -0.011,inactive: -0.008,,,inactive: 0.064,inactive: 0.061,inactive: -0.014,inactive: 0.039,inactive: 0.112,inactive: 0.004,inactive: 0.026,,inactive: -0.011,inactive: -0.116,inactive: 0.215,inactive: -0.006,inactive: 0.006,inactive: -0.035,
IQGAP3 (UniProt Q86VI3),,inactive: 0.034,,,,,,,,,,,,,,,,,,
IKZF4 (UniProt Q9H2S9),inactive: -0.02,inactive: -0.179,inactive: 0.016,,inactive: 0.302,inactive: 0.042,inactive: 0.106,,inactive: 0.009,inactive: -0.207,,inactive: -0.127,inactive: 0.103,inactive: 0.007,inactive: -0.03,inactive: -0.167,inactive: 0.114,inactive: -0.096,inactive: -0.109,inactive: 0.035
IGFBP5 (UniProt P24593),inactive: -0.296,,,,inactive: 0.083,inactive: 0.04,,inactive: -0.063,inactive: 0.118,,,,inactive: -0.298,inactive: -0.088,,inactive: -0.039,,,,
IFNGR1 (UniProt P15260),inactive: -0.246,inactive: 0.048,inactive: -0.056,,active: 0.743,inactive: -0.124,inactive: -0.181,inactive: -0.174,inactive: 0.281,inactive: 0.028,inactive: 0.065,inactive: 0.15,inactive: 0.021,,inactive: 0.1,inactive: -0.087,,inactive: 0.032,inactive: 0.127,inactive: -0.382
IGHA1 (UniProt P01876),inactive: -0.134,inactive: 0.249,inactive: 0.524,,inactive: -0.305,inactive: -0.018,inactive: -0.124,inactive: -0.287,inactive: 0.416,inactive: 0.608,inactive: -0.111,inactive: -0.459,inactive: 0.254,inactive: -0.275,inactive: 0.112,inactive: 0.014,inactive: 0.011,inactive: 1.04,inactive: 0.081,inactive: 1.56
INAFM2 (UniProt P0DMQ5),inactive: 0.037,inactive: -0.042,inactive: 0.105,inactive: -0.249,inactive: 0.229,,inactive: -0.026,inactive: 0.067,inactive: 0.02,inactive: -0.092,inactive: -0.04,inactive: 0.077,inactive: -0.038,inactive: 0.024,,,inactive: -0.037,,,inactive: -0.088
IGFBP3 isoform 2 (UniProt P17936),inactive: -0.187,,inactive: 0.1,inactive: 0.205,inactive: 0.204,inactive: 0.031,inactive: 0.076,,,,,inactive: -0.507,inactive: -0.251,,inactive: 0.075,inactive: -0.238,,inactive: 0.199,inactive: -0.555,
ISCA1 isoform 2 (UniProt Q9BUE6),inactive: 0.03,,inactive: 0.027,inactive: 0.094,inactive: 0.029,inactive: 0.079,inactive: 0.055,inactive: -0.032,inactive: -0.001,inactive: 0.005,inactive: -0.007,inactive: -0.037,inactive: -0.072,inactive: -0.027,inactive: -0.047,inactive: 0.045,inactive: 0.006,inactive: -0.089,inactive: 0,inactive: 0.127
IGHG1 (UniProt P01857),inactive: 0.043,,,,,inactive: 0.444,,inactive: -0.001,inactive: 0.397,inactive: 0.233,inactive: 0.16,,,inactive: 0.042,,inactive: 0.08,inactive: 0,inactive: 0.579,,inactive: 0.474
IRAK1 (UniProt P51617),inactive: -0.16,inactive: 0.024,,inactive: -0.098,inactive: 0.248,,,inactive: 0.035,inactive: 0.217,inactive: 0.319,inactive: -0.265,,inactive: 0.073,inactive: -0.138,inactive: -0.006,,inactive: -0.078,,inactive: -0.108,inactive: -0.016
ITGA2B (UniProt P08514),inactive: -0.071,inactive: 0.064,inactive: -0.058,inactive: -0.052,inactive: 0.121,inactive: -0.105,inactive: 0.134,,inactive: 0.09,,,inactive: 0.134,inactive: -0.089,,inactive: -0.173,inactive: 0.067,,inactive: 0.117,inactive: -0.07,inactive: -0.211
IL18R1 (UniProt Q13478),inactive: 0.232,,inactive: -0.105,inactive: -0.067,,,inactive: -0.038,inactive: 0.071,inactive: -0.072,inactive: 0.136,,inactive: 0.142,,inactive: -0.236,inactive: -0.014,,inactive: 0.189,inactive: 0.032,inactive: -0.001,inactive: 0.014
IGKC (UniProt P01834),inactive: -0.097,inactive: 0.42,,inactive: -0.493,,inactive: -0.047,,inactive: -0.254,inactive: 0.073,inactive: 0.543,inactive: -0.039,,,inactive: -0.341,,inactive: 0.233,inactive: -0.021,,,inactive: 1.32

# Laid out differently: entries from further up
Target | log2 fold change [1] | log2 fold change [2] | log2 fold change [3] | log2 fold change [4] | log2 fold change (Nexturastat A) | log2 fold change (vemurafenib) | log2 fold change [5] | log2 fold change [6] | log2 fold change (givinostat) | log2 fold change (barasertib) | log2 fold change [7] | log2 fold change (volasertib) | log2 fold change (epoxomicin) | log2 fold change [8] | log2 fold change [9] | log2 fold change [10] | log2 fold change (rosiglitazone) | log2 fold change [11] | log2 fold change [12] | log2 fold change [13]
IFNGR1 (UniProt P15260) | inactive: -0.246 | inactive: 0.048 | inactive: -0.056 |  | active: 0.743 | inactive: -0.124 | inactive: -0.181 | inactive: -0.174 | inactive: 0.281 | inactive: 0.028 | inactive: 0.065 | inactive: 0.15 | inactive: 0.021 |  | inactive: 0.1 | inactive: -0.087 |  | inactive: 0.032 | inactive: 0.127 | inactive: -0.382
IGHA1 (UniProt P01876) | inactive: -0.134 | inactive: 0.249 | inactive: 0.524 |  | inactive: -0.305 | inactive: -0.018 | inactive: -0.124 | inactive: -0.287 | inactive: 0.416 | inactive: 0.608 | inactive: -0.111 | inactive: -0.459 | inactive: 0.254 | inactive: -0.275 | inactive: 0.112 | inactive: 0.014 | inactive: 0.011 | inactive: 1.04 | inactive: 0.081 | inactive: 1.56
